From the supplement of paper PMC7889204
Where a name gives a salt, the structure may show the parent alone. The list shows a part of the results. Many values rest on one well or one pass, so single values are uncertain.

System: C6
Assay: cell mass (Coomassie absorbance) after combination of library compound with HMBA, relative to vehicle control (fraction); higher = more remaining cells (less growth inhibition)

| SMILES | cell mass |
| --- | --- |
| CC(=O)Nc1nc(C)c(-c2ccc(Cl)c(S(=O)(=O)NCCO)c2)s1 + CC(=O)NCCCCCCNC(C)=O [hexamethylene bisacetamide] | 0.387 |
| COc1cc2nccc(Oc3ccc(NC(=O)Nc4cc(C)on4)c(Cl)c3)c2cc1OC [AV-951(Tivozanib)] + CC(=O)NCCCCCCNC(C)=O [hexamethylene bisacetamide] | 0.283 |
| CC(=O)Nc1cccc(-n2c(=O)n(C3CC3)c(=O)c3c(Nc4ccc(I)cc4F)n(C)c(=O)c(C)c32)c1 + CC(=O)NCCCCCCNC(C)=O [hexamethylene bisacetamide] | 0.417 |
| Cn1c(=O)c(F)c(Nc2ccc(I)cc2F)c2c(=O)n(C[C@@H](O)CO)cnc21 + CC(=O)NCCCCCCNC(C)=O [hexamethylene bisacetamide] | 0.328 |
| CCNC(=O)c1cc2c(-c3cc(OCCN4CCCC4)c(Cl)cc3Cl)nc(N)nc2s1 + CC(=O)NCCCCCCNC(C)=O [hexamethylene bisacetamide] | 0.57 |
| Nc1nc(Nc2ccc(S(N)(=O)=O)cc2)nn1C(=O)c1c(F)cccc1F + CC(=O)NCCCCCCNC(C)=O [hexamethylene bisacetamide] | 0.414 |
| Nc1nc2[nH]cc(CCc3ccc(C(=O)N[C@@H](CCC(=O)O)C(=O)O)cc3)c2c(=O)[nH]1 + CC(=O)NCCCCCCNC(C)=O [hexamethylene bisacetamide] | 0.345 |
| CC(C)[C@H](O)C(=O)N[C@@H](C)C(=O)N[C@@H]1C(=O)N(C)CCc2ccccc21 [Semagacestat] + CC(=O)NCCCCCCNC(C)=O [hexamethylene bisacetamide] | 0.609 |
| O=C1Nc2ccccc2/C1=C1/Nc2ccccc2C1=O [Indirubin] + CC(=O)NCCCCCCNC(C)=O [hexamethylene bisacetamide] | 0.367 |
| Cc1cc(C(=O)NOCCO)c(Nc2ccc(I)cc2F)n(C)c1=O + CC(=O)NCCCCCCNC(C)=O [hexamethylene bisacetamide] | 0.27 |
| O=C(c1ccc(OCCN2CCCCC2)cc1)c1c(-c2ccc(O)cc2)sc2cc(O)ccc12 [Evista(Raloxifene Hydrochloride] + CC(=O)NCCCCCCNC(C)=O [hexamethylene bisacetamide] | 0.464 |
| CC(C)c1cnn2c(NCc3ccccc3)cc(NCCCCCCN)nc12 [BS-181 hydrochloride] + CC(=O)NCCCCCCNC(C)=O [hexamethylene bisacetamide] | 0.597 |
| O=C(NCc1ccccc1)c1csc(Nc2ccncn2)n1 [Thiazovivin] + CC(=O)NCCCCCCNC(C)=O [hexamethylene bisacetamide] | 0.458 |
| FC(F)(F)c1ccc(Nc2nc3ccc(Oc4ccnc(-c5ncc(C(F)(F)F)[nH]5)c4)cc3[nH]2)cc1 [Raf265 derivative] + CC(=O)NCCCCCCNC(C)=O [hexamethylene bisacetamide] | 0.573 |
| CCOc1ccccc1OCCN[C@H](C)Cc1ccc(OC)c(S(N)(=O)=O)c1 [Tamsulosin hydrochloride] + CC(=O)NCCCCCCNC(C)=O [hexamethylene bisacetamide] | 0.476 |
| O=C(Cc1ccc(-c2ccc(OCCN3CCOCC3)cc2)cn1)NCc1ccccc1 + CC(=O)NCCCCCCNC(C)=O [hexamethylene bisacetamide] | 0.484 |
| CC(C)(C)Cn1c(N)nc2ccc(-c3[nH]c(C(C)(C)C)nc3-c3ccc(F)cc3)nc21 + CC(=O)NCCCCCCNC(C)=O [hexamethylene bisacetamide] | 0.544 |
| C=C1C(=O)O[C@@H]2/C=C(\C)CC/C=C(\C)CC[C@@H]12 [Costunolide] + CC(=O)NCCCCCCNC(C)=O [hexamethylene bisacetamide] | 0.383 |
| O=C1NC(=O)/C(=C\c2ccc3nccnc3c2)S1 + CC(=O)NCCCCCCNC(C)=O [hexamethylene bisacetamide] | 0.489 |
| COc1cc2ncnc(-n3nc(-c4ccccn4)nc3N)c2cc1OC + CC(=O)NCCCCCCNC(C)=O [hexamethylene bisacetamide] | 0.583 |

| SMILES | cell mass |
| --- | --- |
| Cc1cc(Nc2cc(N3CCN(C)CC3)nc(/C=C/c3ccccc3)n2)n[nH]1 + CC(=O)NCCCCCCNC(C)=O [hexamethylene bisacetamide] | 0.379 |
| Nc1ncnc2c1c(-c1cnc3[nH]ccc3c1)nn2C1CCCC1 + CC(=O)NCCCCCCNC(C)=O [hexamethylene bisacetamide] | 0.242 |
| C=CC(=O)Nc1cccc(Sc2nc(Nc3ccc(N4CCN(C)CC4)cc3)ncc2Cl)c1 + CC(=O)NCCCCCCNC(C)=O [hexamethylene bisacetamide] | 0.481 |
| O=C(CN1C(=O)C2(CCCC2)NC[C@H]1c1cc(F)cc(F)c1)Nc1ccc2c(c1)C[C@@]1(C2)C(=O)Nc2ncccc21 [MK 3207 hydrochloride] + CC(=O)NCCCCCCNC(C)=O [hexamethylene bisacetamide] | 0.692 |
| O=C(O)c1ccc2c(c1)nc(Nc1cccc(Cl)c1)c1ccncc12 + CC(=O)NCCCCCCNC(C)=O [hexamethylene bisacetamide] | 0.476 |
| C#Cc1cccc(Nc2ncnc3cc(OCCOC)c(OCCO)cc23)c1 + CC(=O)NCCCCCCNC(C)=O [hexamethylene bisacetamide] | 0.834 |
| CC(C)(C)C#Cc1cc(N(C(=O)[C@H]2CC[C@H](C)CC2)[C@H]2CC[C@H](O)CC2)c(C(=O)O)s1 + CC(=O)NCCCCCCNC(C)=O [hexamethylene bisacetamide] | 1.02 |
| CCS(=O)(=O)Nc1ccc2c(c1)/C(=C(/Nc1ccc(CN3CCCCC3)cc1)c1ccccc1)C(=O)N2 [Hesperadin] + CC(=O)NCCCCCCNC(C)=O [hexamethylene bisacetamide] | 0.312 |
| C#Cc1cccc(Nc2ncnc3cc(OC)c(OCCCCCCC(=O)NO)cc23)c1 + CC(=O)NCCCCCCNC(C)=O [hexamethylene bisacetamide] | 0.555 |
| Cc1cc(Cl)ccc1OCCCC(=O)NO [Droxinostat] + CC(=O)NCCCCCCNC(C)=O [hexamethylene bisacetamide] | 0.456 |
| COC(=O)Nc1ccc(-c2nc(N3CCOCC3)c3cnn(C4CCN(C(=O)OC)CC4)c3n2)cc1 + CC(=O)NCCCCCCNC(C)=O [hexamethylene bisacetamide] | 0.427 |
| C=CC(=O)N1CCC[C@@H](n2nc(-c3ccc(Oc4ccccc4)cc3)c3c(N)ncnc32)C1 + CC(=O)NCCCCCCNC(C)=O [hexamethylene bisacetamide] | 0.693 |
| CCS(=O)(=O)c1cccc(-c2cc(C(=O)NC3CCN(C)CC3)c(C)c3[nH]c4ncc(C)cc4c23)c1 + CC(=O)NCCCCCCNC(C)=O [hexamethylene bisacetamide] | 0.676 |
| NC1(Cc2ccc(Cl)cc2)CCN(c2ncnc3[nH]ccc23)CC1 + CC(=O)NCCCCCCNC(C)=O [hexamethylene bisacetamide] | 0.343 |
| CN(C)Cc1cccc(N=C(c2ccccc2)c2c(O)[nH]c3cc(C(=O)N(C)C)ccc23)c1 + CC(=O)NCCCCCCNC(C)=O [hexamethylene bisacetamide] | 0.653 |
| Cc1cc(O)c2c(c1)C(=O)c1cccc(O)c1C2=O [Chrysophanic acid] + CC(=O)NCCCCCCNC(C)=O [hexamethylene bisacetamide] | 0.502 |
| Cc1cnc(-c2cnc(NCCNc3ccc(C#N)cn3)nc2-c2ccc(Cl)cc2Cl)[nH]1 + CC(=O)NCCCCCCNC(C)=O [hexamethylene bisacetamide] | 0.357 |
| N#C/C(=C\c1ccc(O)c(O)c1)C(=O)NCc1ccccc1 + CC(=O)NCCCCCCNC(C)=O [hexamethylene bisacetamide] | 0.492 |
| Cc1ccc(NC(=O)c2cccc(N(C)C)c2)cc1NC(=O)c1ccc(O)cc1 + CC(=O)NCCCCCCNC(C)=O [hexamethylene bisacetamide] | 0.77 |
| CC(C)C[C@@H](C(=O)N[C@H](C(=O)OC1CCCC1)c1ccccc1)[C@H](O)C(=O)NO + CC(=O)NCCCCCCNC(C)=O [hexamethylene bisacetamide] | 0.551 |

Reprinted at random: 3 records from the list

| SMILES | cell mass |
| --- | --- |
| CC(C)(C)C#Cc1cc(N(C(=O)[C@H]2CC[C@H](C)CC2)[C@H]2CC[C@H](O)CC2)c(C(=O)O)s1 + CC(=O)NCCCCCCNC(C)=O [hexamethylene bisacetamide] | 1.02 |
| CN(C)Cc1cccc(N=C(c2ccccc2)c2c(O)[nH]c3cc(C(=O)N(C)C)ccc23)c1 + CC(=O)NCCCCCCNC(C)=O [hexamethylene bisacetamide] | 0.653 |
| NC1(Cc2ccc(Cl)cc2)CCN(c2ncnc3[nH]ccc23)CC1 + CC(=O)NCCCCCCNC(C)=O [hexamethylene bisacetamide] | 0.343 |
